Measured values as given in patent US20140179681A1, “METHODS AND COMPOSITIONS OF TARGETED DRUG DEVELOPMENT” (priority 2010, published 2014).

System: epithelial carcinoma A431 cell line
Assay: MTT Cell Proliferation Assay, A431 cells
Format: cell-based
Settings: Table 10; ratio second/first value (MDBK/A431)
Text: The following example describes the MTT Cell Proliferation Assay.
The MTT Cell Proliferation Assay is a colorimetric assay system that measures the reduction of the tetrazolium salt MTT (3-(4,5-dimethylthiazol-2-yl)-2,5-diphenyltetrazolium bromide) into insoluble formazan crystals, produced by the mitochondria of viable cells. […] The color can then be quantified by spectrophotometric means. Among the applications for the method are drug sensitivity, cytotoxicity, response to growth factors, and cell activation. The reduction of tetrazolium salts is now recognized as a safe, accurate alternative to radiometric testing.
Two replicates on each cell plate and 2 duplicate plates gave 4 individual replicates of each concentration, in each cell line. Concentrations were diluted in 100% DMSO from 25 mM stocks.
Twelve 96 well plates of each cell line were plated. Plating was done by dislodging cells as in passage protocol, counting on a hemocytometer, re-suspending in standard growth media, and plating using a multichannel pippetor.
16 μl of 25 mM stock+34 μl DMSO=8 mM starting concentrations, and serial diluted as with test compounds in same plate. […] Two replicates of each concentrations was run on each cell plate. All compound addition and cell treatments were done using aseptic technique under a laminar flow aseptic hood.
Control: 0.5% DMSO in treatment media was used as the control.
MTT dye (Thiazolyl Blue Tetrazolium Bromide, Sigma cat #M5655) stock was prepared in bulk and stored at 4° C. for use: 5 mgs/ml sterile PDS, shielded from light. 4 ul of this stock per 100 uls treatment media per well was used.
Plates were incubated overnight prior to treatment, with treatment day=Day 0. Compound treatments were prepared prior to washing cells to minimize time cells were dry at room temperature after final aspiration. Compounds were diluted in 100% DMSO in 96 well polypropylene plates: 40 μl 25 mM stock+10 μl DMSO=20 mM; 20 μl of 20 mM+30 μl DMSO=8 mM; 20 μl of 8 mM+30 μl DMSO=3.2 mM; 20 μl of 3.2 mM+30 μl DMSO=1.3 mM; 20 μl of 1.3 mM+30 μl DMSO=0.51 mM.
5.0 μl/ml were added to treatment media, in sterile, 2.2 ml deep well plates=0.5% dmso final. Ten μl of each dmso concentration was added to 2.0 ml of treatment media and then mixed using a 1200 μl multichannel pipettor. Cell plates were treated from the deep well plates. Treatment media was standard growth media containing 0.5% FBS and standard additions. This reduced FBS concentration allowed for a slower growth rate in cells.
Media was aspirated from cell plates, and washed with 200 μl/well sterile PBS. Aspirated PBS wash, and cell plates were treated with 200 μl of compound/treatment media per well, and incubated at 37° C., 5% CO2 for 3 days.
Prior to harvesting, visual observations were made under an inverted microscope. Plates were harvested by: aspirating the growth media; adding back MTT dye/100 μl treatment media; and incubating plates at 37° C. for 1 hour. MTT dye was aspirated. 100 μl/well dmso was added, and then shaken on a Bellco plate shaker for 5 minutes, at 4.5 setting.
Plates were read in a Tecan Sunrize UV plate reader, at 560 nm. Settings: Read mode, Outside Normal 2 sec; Shake settle time 3 sec. Data is reported as % inhibition, calculated for individual plates using control values from that plate.

Row | SMILES | MTT assay (value in parentheses)
1 | Cc1ccc(NC(=S)Nc2ccc(S(=O)(=O)Nc3cc(Cl)cc(Cl)c3)cc2)cc1C [AD4-12400] | 1.42
2 | COc1ccc(NS(=O)(=O)c2ccc(NC(=S)Nc3ccccc3C(F)(F)F)cc2)cc1 [AD4-12577] | 0.89
3 | CC(=O)c1cccc(NC(=S)Nc2ccc(S(=O)(=O)Nc3c(C)cc(C)cc3C)cc2)c1 [AD4-12391] | 0.82
4 | CCc1ccc(NC(=S)Nc2ccc(S(=O)(=O)Nc3cc(Cl)cc(Cl)c3)cc2)cc1 [AD4-12436] | 1.01
5 | COc1ccc(NC(=S)Nc2ccc(S(=O)(=O)Nc3ccc(Cl)cc3)cc2)cc1OC [AD4-12525] | 0.82
6 | O=S(=O)(Nc1ccc(Cl)cc1)c1ccc(NC(=S)Nc2cccc(C(F)(F)F)c2)cc1 [AD4-12423] | 0.91 and 0.69
7 | CC1CCc2cc(F)ccc2N1S(=O)(=O)c1ccc(NC(=S)Nc2ccc(Br)cc2)cc1 (stereo not drawn) [AD4-12813] | 1.16
8 | CC1CCc2cc(F)ccc2N1S(=O)(=O)c1ccc(NC(=S)Nc2ccc(Cl)c(Cl)c2)cc1 (stereo not drawn) [AD4-12827] | 0.99
9 | CC1CCc2cc(F)ccc2N1S(=O)(=O)c1ccc(NC(=S)Nc2ccc(Br)cc2Cl)cc1 (stereo not drawn) [AD4-12832] | 2.11
10 | COc1ccc(NC(=S)Nc2ccc(S(=O)(=O)Nc3ccccc3C)cc2)c(OC)c1 [AD4-12517] | 0.66
11 | COc1ccc(NC(=S)Nc2ccc(S(=O)(=O)Nc3ccc(Cl)c(Cl)c3)cc2)cc1OC [AD4-12246] | 0.96
12 | O=S(=O)(Nc1ccccc1)c1ccc(NC(=S)Nc2cc(Cl)ccc2Cl)cc1 [AD4-12855] | 0.92
13 | O=S(=O)(Nc1ccccc1)c1ccc(NC(=S)Nc2cccc(Cl)c2)cc1 [AD4-12842] | 0.83
14 | O=S(=O)(Nc1ccccc1)c1ccc(NC(=S)Nc2ccc(F)c(Cl)c2)cc1 [AD4-12851] | 0.83
15 | CC(=O)c1cccc(NC(=S)Nc2ccc(S(=O)(=O)N3c4ccc(F)cc4CCC3C)cc2)c1 (stereo not drawn) [AD4-12825] | 0.81
16 | COc1cccc(NC(=S)Nc2ccc(S(=O)(=O)Nc3ccc(Cl)cc3)cc2)c1 [AD4-12411] | 0.77
17 | COc1ccc(C)cc1NC(=S)Nc1ccc(S(=O)(=O)Nc2ccc(Cl)cc2)cc1 [AD4-12485] | 1.03
18 | O=S(=O)(Nc1ccccc1)c1ccc(NC(=S)Nc2ccc(Cl)c(Cl)c2)cc1 [AD4-12833] | 1.00
19 | O=S(=O)(Nc1cc(Cl)cc(Cl)c1)c1ccc(NC(=S)Nc2cccc(C(F)(F)F)c2)cc1 [AD4-12509] | 0.95
20 | COc1ccc(NC(=S)Nc2ccc(S(=O)(=O)Nc3ccccc3C)cc2)cc1OC [AD4-12527] | 0.74
21 | Cc1ccc(Cl)cc1NC(=S)Nc1ccc(S(=O)(=O)N2c3ccc(F)cc3CCC2C)cc1 (stereo not drawn) [AD4-12829] | 1.01
22 | COc1ccc(NS(=O)(=O)c2ccc(NC(=S)Nc3ccc(OC)c(OC)c3)cc2)cc1 [AD4-12433] | 1.32
23 | Cc1cc(C)c(NS(=O)(=O)c2ccc(NC(=S)Nc3ccc(S(C)(=O)=O)cc3)cc2)c(C)c1 [AD4-11427] | 1.21
24 | Cc1ccc(NC(=S)Nc2ccc(S(=O)(=O)Nc3ccccc3)cc2)cc1Cl [AD4-12844] | 0.90
25 | CCN(c1ccccc1)S(=O)(=O)c1ccc(NC(=S)Nc2ccccc2)cc1 [AD4-12389] | 0.50
26 | COc1ccccc1NS(=O)(=O)c1ccc(NC(=S)Nc2ccc(OC)c(OC)c2)cc1 [AD4-12537] | 1.09
27 | Cc1ccc(NC(=S)Nc2ccc(S(=O)(=O)Nc3ccc(Cl)cc3)cc2)cc1 [AD4-12413] | 0.93
28 | COC(=O)c1sc2cc(NC(=S)Nc3ccc(S(=O)(=O)Nc4c(C)cc(C)cc4C)cc3)ccc2c1Cl [AD4-12560] | 0.59

Same assay, conditions: Table 11; ratio second/first value (MDBK/A431)

Row | SMILES | MTT Screen (value in parentheses) | MTT Follow-up (value in parentheses)
29 | O=c1cc(CN2CCN(Cc3ccccc3)CC2)c2cc(Cl)c(O)cc2o1 [AD4-10180] | 2.17 | 
30 | Cc1c(O)ccc2c(CN3CCN(Cc4ccc5c(c4)OCO5)CC3)cc(=O)oc12 [AD4-10637] | 1.99 | 
31 | COc1ccc(N2CCN(Cc3cc(=O)oc4cc5c(cc34)OCO5)CC2)cc1 [AD4-10209] |  | 20.0
32 | CCc1cc2c(CN3CCN(Cc4ccccc4)CC3)cc(=O)oc2cc1O [AD4-10186] | 1.14 | 
33 | Cc1c(O)ccc2c(CN3CCN(Cc4ccc5c(c4)OCO5)CC3)cc(=O)oc12 [AD4-10491] | 1.83 | 

Values joined by “and” are separate entries in the source; they are usually repeats but may differ in a detail not shown here. Identical values can stand only once.
